Assay: PFAA concentration in morning urine of occupational workers (HPLC-ESI/MS/MS)
Assay type: in vivo, human
Settings: for Detection frequency in the urine samples: all workers; for Relative abundance in the urine: of PFOS, PFHxS and PFOA
Description: The selected fluorochemical plant (Henxin Chemical Plant) in this study is one of the largest producers of PFOS-related chemicals in China and is located in Yingcheng, Hubei province. Perfluoroalkyl sulfonic acids (PFSAs) and perfluorotertiary amines are synthesized through an electro-chemical fluorination (ECF) process. We collected paired serum and urine samples from the occupational workers in the plant for five consecutive years, and the sampling activities were carried out in Nov. 2008, Nov. 2009, Nov. 2010, Dec. 2011, and Dec 2012, respectively. The Medical Research Ethics Committee, School of Medicine, Jianghan University, approved the ethics of this study, and all methods were performed in accordance with the relevant guidelines and regulations, moreover, all volunteers gave written informed consent. Demographic information of the donors, including gender, age, length of service, and work assignment, was collected with a questionnaire (Table S1). The sampled population included a total of 302 occupational workers, of which there were 89 female and 213 male participants. In total, 302 serum and 274 urine samples were collected.
The participants were told not to eat breakfast before the sampling, and morning urine samples and blood samples were collected. Serum was separated from the blood by centrifugation at 1100 × g at 4 °C for 10 min and then placed on ice. Serum samples were then transferred to our laboratory on the same day and stored in polypropylene containers at −20 °C until analysis.
All pre-treatment methods and instrument analysis of PFAAs in serum and urine samples are based on previous studies with minor modifications (see Supplementary Information)[3][31]. Based on the PFAA profiles in environmental matrices around the same plant in our previous study, only 3 main PFAAs, PFHxS, PFOA, and PFOS, were analyzed in the obtained serum and urine samples. Instrumental analysis of the PFAAs was performed by a HPLC-ESI/MS/MS system (HPLC: Waters 2695, MS: Waters Quattro Premier XE). The limits of detection (LODs) of PFHxS, PFOA, and PFOS were 0.020, 0.063, and 0.018 ng mL^−1 for serum samples and 0.008, 0.025, and 0.007 ng mL^−1 for urine samples, respectively. A procedural blank was performed for every batch of seven samples, and all of the blank levels were below the LODs. […] Details of quality assurance and quality control of the chemical analysis can be found in the Supplementary Information.
Urine samples were pretreated by solid phase extraction. Briefly, 1 mL of urine spiked with 5 ng of internal standard was added to a 15 - mL PP tube and diluted with 13 mL water. The solid phase extraction procedure was then performed following the previously described serum extraction procedure.

| SMILES | Detection frequency in the urine samples [%] | Relative abundance in the urine [%] |
| --- | --- | --- |
| O=C(O)C(F)(F)C(F)(F)C(F)(F)C(F)(F)C(F)(F)C(F)(F)C(F)(F)F [PFOA, perfluorooctanoic acid] | 93 |  |
| O=S(=O)(O)C(F)(F)C(F)(F)C(F)(F)C(F)(F)C(F)(F)C(F)(F)F [PFHxS, perfluorohexane sulfonate] | 90 | 31 |
| O=S(=O)(O)C(F)(F)C(F)(F)C(F)(F)C(F)(F)C(F)(F)C(F)(F)C(F)(F)C(F)(F)F [PFOS, perfluorooctanesulfonate] | 91 | 19 |

Source: paper PMC5131319, “Occurrence, temporal trends, and half-lives of perfluoroalkyl acids (PFAAs) in occupational workers in China” (Scientific Reports, 2016)
